Reference: patent US12038445B2, “Liver disease-related biomarkers and methods of use thereof” (Human Metabolomics Institute, Inc., priority 2016, dated 2024)
For at least one compound, name, drawing or mass did not settle the structure.

Key:
Assay type in all cases: cell-based, human
[1] = test system: HepG2; experiment: Cell proliferation after BA treatment, HepG2; details: BA treatment 14 days, 100 μM
Description: Human cancer cell line, HepG2, was purchased from Sigma and maintained in DMEM-F12 (Life Technologies) supplemented with 10% fetal bovine serum (FBS, Life Technologies). For BA treatment, cells were harvested, rinsed twice with PBS, seeded in sugar-free DMEM (Life Technologies) supplemented with 10% charcoal-stripped FBS and 6 mM glucose. […] The spent media was replaced by fresh normal medium (DMEM-F12 containing 10% FBS) 14 days later. And then cells were used for cell proliferation assay and western blot analysis for the tumor suppressor protein CEBPa.

[2] = test system: WRL-68; experiment: Cell proliferation after BA treatment, WRL-68; details: BA treatment 14 days in high glucose (27.5 mM) and oleic acid (0.3 mM)
Description: (§1) Normal human hepatic cell lines WRL-68 and THLE-2 were purchased from Sigma. For BA treatment, cells were harvested, rinsed twice in PBS, resuspended in sugar-free DMEM (Life Technologies) supplemented with 10% charcoal-stripped FBS and seeded into 6-well plate at a density of 5×10^4/well. […] After 14 days treatment, normal medium (DMEM-F12 containing 10% FBS) were added into each well to replace the spent media. Cell proliferation and anchorage-independent growth assays were performed in the normal medium. Additionally, western blot assay was performed to analyze the alteration of oncoprotein c-myc expression.

[3] = test system: WRL-68; experiment: Anchorage-independent growth assay, WRL-68; details: BA treatment under high glucose and high fat condition
Description: as §1, with “5×10^4/well. We set the glucose (Glc, Sigma) at 27.5 mM and Oleic acid (OA, Sigma) at 0.3 mM to mimic high glucose and fat conditions in vitro.” for “5×10^4/well.”

[4] = test system: THLE-2; experiment: Cell proliferation after BA treatment, THLE-2; details: BA treatment 14 days in high glucose (27.5 mM) and oleic acid (0.3 mM)
Description: as §1

[5] = test system: c-myc; experiment: Western blot of oncoprotein c-myc in WRL-68 cells
Description: as §1, with “5×10^4/well. We set the glucose (Glc, Sigma) at 27.5 mM and Oleic acid (OA, Sigma) at 0.3 mM to mimic high glucose and fat conditions in vitro.” for “5×10^4/well.”
Primary antibodies for c-myc (Santa Cruz), CEBPa (Santa Cruz) and Actin (Li-cor) were purchased and used with a diluted concentration as indicated by the manufacturers.

SMILES	HepG2 cell proliferation [1]	WRL-68 proliferation [2]	anchorage-independent growth of WRL-68 compared to those treated with high glucose and high fat [3]	anchorage-independent growth of WRL-68 compared with parental cells [3]	THLE-2 proliferation [4]	expression of oncoprotein c-myc [5]
C[C@H](CCC(=O)O)[C@H]1CC[C@H]2[C@@H]3CC[C@@H]4C[C@H](O)CC[C@]4(C)[C@H]3CC[C@]12C [LCA, lithocholic acid]	significantly promoted	significantly promoted	significantly increased	didn't enhance	significantly promoted	increased
C[C@H](CCC(=O)NCCS(=O)(=O)O)[C@H]1CC[C@H]2[C@@H]3CC[C@@H]4C[C@H](O)CC[C@]4(C)[C@H]3CC[C@]12C [TLCA, taurolithocholic acid]		very little influence				
